Where a name gives a salt, the structure may show the parent alone. Read-outs that look alike come from different tables or passages of the source.
Test system: murine neural precursor cells (neurosphere cultures)
Assay: HTS of LOPAC library against secondary neurosphere cultures, MTT proliferation assay at 3 μM, day 7 (z score, P value)
Assay type: cell-based, mouse
[1] = yes/no: significantly inhibited neurosphere proliferation (P<0.01) in primary screen

SMILES: CN1CCC[C@@H]1CCO[C@](C)(c1ccccc1)c1ccc(Cl)cc1 [Clemastine fumarate]
- Activity [1]: no

SMILES: C(=C\c1ccccc1)/CN1CCN(C(c2ccccc2)c2ccccc2)CC1 [Cinnarizine]
- Activity [1]: no

SMILES: O=C1NC(=O)C(c2ccccc2[N+](=O)[O-])=C1Nc1ccc(O)c(Cl)c1 [SB 415286]
- Activity: yes

SMILES: CCCN1CCCC2Cc3[nH]ncc3CC21.Cl.Cl (stereo not shown) [(B1)-Quinpirole dihydrochloride]
- Z Score: −0.4513

SMILES: CCN(CC)CCOC(=O)C1(C2CCCCC2)CCCCC1 [Dicyclomine hydrochloride]
- Activity [1]: no

SMILES: Br.CN1[C@@H]2CC[C@H]1C[C@@H](OC(=O)C(O)c1ccccc1)C2 (mixture of isomers) [DL-Homatropine hydrobromide]
- Activity: no
- Z Score: 0.744
- Z score (LOPAC primary screen, neurosphere MTT proliferation, 3 μM, day 7): 0.744

SMILES: Cc1ccccc1C(OCCN(C)C)c1ccccc1 (stereo not shown) [Orphenadrine hydrochloride]
- Activity (yes/no: significantly inhibited neurosphere proliferation (P<0.01) in the primary screen): no

SMILES: CCN(CC)C(=O)NC1C=C2c3cccc4[nH]cc(c34)C[C@H]2N(C)C1.O=C(O)/C=C\C(=O)O (stereo partly drawn) [R(+)-Lisuride hydrogen maleate]
- Activity: no

SMILES: COc1ccc(-n2nc(C(F)(F)F)cc2-c2ccc(Cl)cc2)cc1 [SC-560]
- Activity: no

SMILES: CCCN1CCC[C@@H]2Cc3[nH]ncc3C[C@H]21.Cl.Cl (racemic) [(±)-Quinpirole dihydrochloride]
- Z score: −0.451

SMILES: CN(C)CCN(Cc1cccs1)c1ccccn1 [Methapyrilene hydrochloride]
- Activity: no
